Measured values published in PubChem BioAssay AID1508600 (Functional Genomics Laboratory (NCATS/FGL), 2020).
About 3,700 (7%) of roughly 53,000 sequences were called active.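 The calls were made as follows: active = gene knockdowns whose robust z-score for IL-1 alpha signal is at least 2 or at most -2, so actives lie on both sides; inactive = the rest.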 The list shows a part of the results.

Assay: Components of the Cytosolic LPS Sensing Pathway: Gene Identification via Genome-wide siRNA Screen;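 also: robust z of the log signal after scaling to non-targeting control siRNA wells of the plate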
Conditions: RAW264.7 macrophages, IL-1a HTRF, actives lie on both sides, screened at 100 nM (by protocol), cells primed 5 h with Pam3CSK4 first
Method in brief: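 RAW264.7; siRNA 100 nM final, RNAiMAX, 48h 37 degrees C; Pam3CSK4 5 h; LipidA + TransIT-TKO 24 h; IL-1a HTRF; CellTiter-Glo viability; robust z vs negative-control median.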

| Sequence | z-score |
| --- | --- |
| GGCUCUUAGAAAAAUGUUATT against Olfr1156 | inactive: -0.816 |
| GGCUUUGAUUGAACAUGAGTT against Lypla2 | inactive: -1.85 |
| GCGGUAGAGACUACAGCCUTT against BC028528 | inactive: 0.192 |
| GGCAAAGACAUUGAUCCACTT against Slc5a12 | inactive: -0.745 |
| GGGAUCCUUGUAUUUCUUUTT against Ctns | inactive: -0.576 |
| GGUUCUCAUCAACCUUCUCTT against Olfr109 | inactive: 0.484 |
| GCAAUGGAUUUCAAUUGACTT against Fam167a | inactive: -0.33 |
| GGAAUGGUGAUAGCCACACTT against Olfr24 | inactive: 0.565 |
| CGCUCUGUAGUUUCCUUUCTT against Camk1d | inactive: 1.17 |
| GGGAUAAAGGCACUUUGUATT against Csgalnact1 | inactive: -0.476 |
| GGCUGAUGUGGAAGGGAUGTT against Lefty1 | inactive: -0.159 |
| GGAAACAGGGCUACGACAGTT against Nxpe4 | inactive: -0.0851 |
| CCGAACUUUCAUUCAAUAUTT against Tmem260 | inactive: 0.112 |
| GGUUGAUAGGAUAUGGUCCTT against Klhl31 | inactive: -0.437 |
| GGAUAACCCUAAGUUUAUGTT against Clu | inactive: 0.753 |
| GGAGAACCCUUAUGUGACATT against Pik3ca | inactive: -1.91 |
| GUUUCUCGAAGAGCAUCCUTT against Cyb5a | inactive: 0.732 |
| GGAAGAAAAGGUGUUUACATT against Gpr143 | inactive: 0.86 |
| CGAUUGAUGACAAAUGGAATT against 9330175E14Rik | inactive: -1.65 |
| GGAAAUAGAGGGAGAAUAATT against Ccdc169 | inactive: -0.892 |
| GCUACUAAGCACCUAGAGATT against Fxr2 | inactive: -0.932 |
| GGAGAAGGAAAUUCAGAAATT against Gnpda1 | inactive: 0.957 |
| GUAGGAAGGAGUGAGCAUUTT against Gm10037 | inactive: 1.03 |

In another format: entries from further up.
Sequence,z-score
GGAAUGGUGAUAGCCACACTT against Olfr24,inactive: 0.565
GGGAUAAAGGCACUUUGUATT against Csgalnact1,inactive: -0.476

Additional records.

| Sequence | z-score |
| --- | --- |
| GGAUGAAGGAAUCCAUGCATT against Pcdhga6 | inactive: -0.133 |
| GGCUCAGCUCAUGAACGACTT against Acvr2b | inactive: -0.00307 |
| GGAAAUAGCCAGAAUAAGGTT against Baiap2l1 | inactive: -0.976 |
| GGAUCACAUGAAAGGAUUATT against Dclre1c | inactive: -0.242 |
| GCUGCCUGAGUCCAGUCUUTT against Ear14 | inactive: -1.89 |
| GCUACUCAGCUGCUUAAGCTT against Rpl7a | inactive: -0.154 |
| GGGCCACCCAAAACAUCUUTT against Vmn1r19 | inactive: -0.456 |
| GCUGAACCUGCAGCACAUCTT against Mettl7a2 | inactive: -0.0665 |
| GCCAUACAUAAACUACAAUTT against Gulo | inactive: -0.175 |
| CGCAAAGUGGACAAACGUATT against Kcne3 | inactive: 0.0218 |
| CUGAAACAUCCGUACACUCTT against Svs3a | inactive: -1.06 |
| GGAAACUAGAUAGGACAAATT against Podn | inactive: 0.483 |
| GGCAUAAUUCGAGAUAUCATT against Plcxd3 | inactive: -1.15 |
| GGAAAUCAGAUUCCUUAAATT against Rmdn2 | inactive: 0.197 |
| CCUUUAAAUGACCAUACUUTT against Eny2 | inactive: -0.21 |
| GGUUGAAAAUGUUGUCAGGTT against Atpsckmt | inactive: -0.733 |
| CCAAGAUUUAUCAACUCAGTT against Aqp1 | inactive: -0.796 |
| GGGUUGGAAAUAAAUAACGTT against Commd9 | inactive: 0.942 |
| GGUUUCUUGGACAGAAGUGTT against Nlrp4a | inactive: -0.0759 |
| CCUCAGAGUGAUAACUAAATT against Ctdsp1 | inactive: 0.847 |
| GGUUUACCAGGAAAAUUGATT against Txnrd3 | inactive: -1.09 |
| CCUAAUAUAGUUGAGGAUGTT against Tgs1 | inactive: -0.319 |
| GCGAAUCCAAGCUGGAUAGTT against Nfkbiz | inactive: -0.78 |

Another view of some results above.
Sequence,z-score
GGCUUUGAUUGAACAUGAGTT against Lypla2,inactive: -1.85
GCGGUAGAGACUACAGCCUTT against BC028528,inactive: 0.192
GGCAAAGACAUUGAUCCACTT against Slc5a12,inactive: -0.745
GGUUCUCAUCAACCUUCUCTT against Olfr109,inactive: 0.484
GGAAUGGUGAUAGCCACACTT against Olfr24,inactive: 0.565
CGCUCUGUAGUUUCCUUUCTT against Camk1d,inactive: 1.17
CCGAACUUUCAUUCAAUAUTT against Tmem260,inactive: 0.112
GGUUGAUAGGAUAUGGUCCTT against Klhl31,inactive: -0.437
GUUUCUCGAAGAGCAUCCUTT against Cyb5a,inactive: 0.732
GGAAGAAAAGGUGUUUACATT against Gpr143,inactive: 0.86
GGAAAUAGAGGGAGAAUAATT against Ccdc169,inactive: -0.892
GGCUCAGCUCAUGAACGACTT against Acvr2b,inactive: -0.00307
GCUACUCAGCUGCUUAAGCTT against Rpl7a,inactive: -0.154
GCUGAACCUGCAGCACAUCTT against Mettl7a2,inactive: -0.0665
CUGAAACAUCCGUACACUCTT against Svs3a,inactive: -1.06
GGAAACUAGAUAGGACAAATT against Podn,inactive: 0.483
GGGUUGGAAAUAAAUAACGTT against Commd9,inactive: 0.942
GCGAAUCCAAGCUGGAUAGTT against Nfkbiz,inactive: -0.78

Next entries follow:

| Sequence | z-score |
| --- | --- |
| CCUCUCACGCUACAGCUGUTT against Nfatc1 | inactive: 1.28 |
| GCAGUCGACAAAGUAUUUCTT against Msx3 | inactive: 0.0956 |
| GGUUCUCUGUAGUUUAAAATT against Selp | inactive: 0.104 |
| GGACAAGGCAACACAUACCTT against Csnk1a1 | active: 2.58 |
| GGAAAAAGUGCAUUUAUGUTT against Prpf40a | inactive: -1.16 |
| GAUGGUGUCUAUCGAGAGCTT against Oxct2a | inactive: -1.15 |
| GCCGGAUCCUAAAGAGUCATT against Ska1 | inactive: -0.502 |
| GCCGAUUCUCAUAUUUGACTT against Exo1 | inactive: -0.742 |
| GCCUUUGAUAGUGGUGAAUTT against F11r | active: -3 |
| CCUCAUUCAGUAUGUCGCATT against Atg2b | inactive: -0.227 |
| GGAUAAAAGACUGAACAGUTT against Gpatch1 | inactive: -0.533 |
| CGCAUAGAGCCUGUCCUCATT against Spink1 | inactive: -1.57 |
| GGCAAAGAGGAAAAGAGUGTT against Gtf2h2 | inactive: -0.543 |
| CCUGCUUUCUCUAUACCUATT against Hrob | inactive: 1.2 |
| GCAAUAAGGGCAUUAUAAATT against Wdhd1 | inactive: -0.407 |
| GGUCAUUUUGUUUCGCUUUTT against Fgf5 | inactive: -0.232 |
| GCAUCUCCCAACCAUGAUGTT against Myl3 | inactive: 0.292 |
| AAGACUUGAUCUGAGCAGATT against Ecm2 | inactive: 0.361 |
| GGAACUCCAACAGGACUUUTT against Slc26a9 | inactive: -0.565 |
| CCAUGUUUAUGGCACGCUGTT against Postn | inactive: 0.536 |
| GGUGUUCGAUGGACGUGAUTT against Bmp1 | inactive: -0.183 |
| GGUUUUCUCAGACUACUCGTT against Lmtk3 | inactive: 0.524 |
